Consider two sequences from PMC11725642.

For at least one entry, the source does not settle the construct or the ends of the probe.

For series [1], the system named is GST-OfWRKY17 (Osmanthus fragrans 'Sijigui' (printed 'Sjigui')). Briefly: EMSA. The following applies: Chemiluminescence EMSA Kit (Beyotime); pH and temperature not stated; unlabeled probes used as competitors; recombinant protein; protein details: N-terminal …; label: biotin on F strand.
For series [2], the system named is GST-OfC3H49 (Osmanthus fragrans 'Sijigui' (printed 'Sjigui')). Nature of the series: EMSA. The following applies: Chemiluminescence EMSA Kit (Beyotime); pH and temperature not stated; unlabeled probes used as competitors; recombinant protein; protein details: N-terminal ….

As to “GCATATATCTAATTGACTTGAAATAAATGAA (double strand) [proOfC3H49 probe]”, in series [1], the binding result was “binds”. With “AGCATTCTCACAAAAAGTAATTTTCACTATA (double strand) [proOfSOC1B probe]”, the binding result in series [2] is reported as “binds”.
